Assay results from publication PMC7283227.
These are yes or no findings as the source states them, for the method shown. In cells and extracts the contact can be indirect. Some entries that bind do so weakly or less than the wild type.

Chains of the proteins cited; added tags and fusions are not shown. Residues count along the entry.
UniProt P24821, residues 23-2201: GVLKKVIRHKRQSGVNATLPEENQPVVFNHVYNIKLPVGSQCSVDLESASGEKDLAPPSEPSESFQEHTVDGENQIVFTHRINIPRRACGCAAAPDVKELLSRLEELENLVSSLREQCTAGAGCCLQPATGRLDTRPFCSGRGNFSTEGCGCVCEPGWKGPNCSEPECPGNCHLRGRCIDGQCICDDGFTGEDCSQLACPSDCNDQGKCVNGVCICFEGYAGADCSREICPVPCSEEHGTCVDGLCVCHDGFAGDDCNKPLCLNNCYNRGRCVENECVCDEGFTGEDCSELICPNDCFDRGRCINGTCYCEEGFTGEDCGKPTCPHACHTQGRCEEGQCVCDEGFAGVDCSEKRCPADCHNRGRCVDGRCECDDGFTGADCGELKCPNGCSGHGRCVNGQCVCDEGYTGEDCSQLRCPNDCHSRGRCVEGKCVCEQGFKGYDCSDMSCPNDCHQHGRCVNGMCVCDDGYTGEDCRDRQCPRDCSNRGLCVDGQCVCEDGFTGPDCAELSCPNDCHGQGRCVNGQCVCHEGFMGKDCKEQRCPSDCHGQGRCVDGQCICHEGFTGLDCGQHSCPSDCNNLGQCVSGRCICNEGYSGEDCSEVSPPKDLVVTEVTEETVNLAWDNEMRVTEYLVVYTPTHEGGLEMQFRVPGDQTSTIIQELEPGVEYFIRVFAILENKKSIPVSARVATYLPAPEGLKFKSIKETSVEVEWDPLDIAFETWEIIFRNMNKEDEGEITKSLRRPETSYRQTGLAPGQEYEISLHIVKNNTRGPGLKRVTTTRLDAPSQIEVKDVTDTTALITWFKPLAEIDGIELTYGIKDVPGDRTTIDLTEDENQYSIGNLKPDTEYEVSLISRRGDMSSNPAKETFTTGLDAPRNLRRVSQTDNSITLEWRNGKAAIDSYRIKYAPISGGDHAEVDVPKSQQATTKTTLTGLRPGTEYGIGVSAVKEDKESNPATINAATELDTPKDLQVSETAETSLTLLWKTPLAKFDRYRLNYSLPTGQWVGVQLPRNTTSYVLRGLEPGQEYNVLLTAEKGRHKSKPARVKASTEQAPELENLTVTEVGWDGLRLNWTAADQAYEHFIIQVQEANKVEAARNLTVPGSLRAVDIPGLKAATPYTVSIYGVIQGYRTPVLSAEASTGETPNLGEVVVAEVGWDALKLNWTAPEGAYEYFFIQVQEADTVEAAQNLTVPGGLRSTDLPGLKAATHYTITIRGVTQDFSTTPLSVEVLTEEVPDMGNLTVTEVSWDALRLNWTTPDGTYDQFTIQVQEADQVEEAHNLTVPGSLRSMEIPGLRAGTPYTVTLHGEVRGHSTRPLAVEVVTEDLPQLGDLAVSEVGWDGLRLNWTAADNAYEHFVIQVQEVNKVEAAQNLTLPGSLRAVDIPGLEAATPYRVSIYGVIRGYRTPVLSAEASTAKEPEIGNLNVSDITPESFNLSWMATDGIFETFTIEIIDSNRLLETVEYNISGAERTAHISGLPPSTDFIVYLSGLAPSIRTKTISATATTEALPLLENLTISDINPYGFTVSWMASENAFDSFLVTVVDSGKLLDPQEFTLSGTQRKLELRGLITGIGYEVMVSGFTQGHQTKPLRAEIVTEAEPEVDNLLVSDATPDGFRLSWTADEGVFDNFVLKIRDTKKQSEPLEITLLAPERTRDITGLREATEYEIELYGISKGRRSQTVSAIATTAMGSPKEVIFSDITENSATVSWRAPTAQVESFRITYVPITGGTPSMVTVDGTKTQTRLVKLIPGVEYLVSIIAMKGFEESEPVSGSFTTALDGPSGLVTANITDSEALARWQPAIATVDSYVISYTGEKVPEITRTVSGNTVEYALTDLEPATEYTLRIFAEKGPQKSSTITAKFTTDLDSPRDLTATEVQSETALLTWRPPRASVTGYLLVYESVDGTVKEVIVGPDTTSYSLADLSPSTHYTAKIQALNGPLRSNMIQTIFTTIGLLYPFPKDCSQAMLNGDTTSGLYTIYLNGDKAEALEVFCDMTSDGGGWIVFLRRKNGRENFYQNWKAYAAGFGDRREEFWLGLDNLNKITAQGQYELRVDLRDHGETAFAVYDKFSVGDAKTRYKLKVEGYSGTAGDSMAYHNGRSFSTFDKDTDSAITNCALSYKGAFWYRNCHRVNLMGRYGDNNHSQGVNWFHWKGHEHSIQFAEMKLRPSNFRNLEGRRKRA
UniProt P02751, residues 32-2477: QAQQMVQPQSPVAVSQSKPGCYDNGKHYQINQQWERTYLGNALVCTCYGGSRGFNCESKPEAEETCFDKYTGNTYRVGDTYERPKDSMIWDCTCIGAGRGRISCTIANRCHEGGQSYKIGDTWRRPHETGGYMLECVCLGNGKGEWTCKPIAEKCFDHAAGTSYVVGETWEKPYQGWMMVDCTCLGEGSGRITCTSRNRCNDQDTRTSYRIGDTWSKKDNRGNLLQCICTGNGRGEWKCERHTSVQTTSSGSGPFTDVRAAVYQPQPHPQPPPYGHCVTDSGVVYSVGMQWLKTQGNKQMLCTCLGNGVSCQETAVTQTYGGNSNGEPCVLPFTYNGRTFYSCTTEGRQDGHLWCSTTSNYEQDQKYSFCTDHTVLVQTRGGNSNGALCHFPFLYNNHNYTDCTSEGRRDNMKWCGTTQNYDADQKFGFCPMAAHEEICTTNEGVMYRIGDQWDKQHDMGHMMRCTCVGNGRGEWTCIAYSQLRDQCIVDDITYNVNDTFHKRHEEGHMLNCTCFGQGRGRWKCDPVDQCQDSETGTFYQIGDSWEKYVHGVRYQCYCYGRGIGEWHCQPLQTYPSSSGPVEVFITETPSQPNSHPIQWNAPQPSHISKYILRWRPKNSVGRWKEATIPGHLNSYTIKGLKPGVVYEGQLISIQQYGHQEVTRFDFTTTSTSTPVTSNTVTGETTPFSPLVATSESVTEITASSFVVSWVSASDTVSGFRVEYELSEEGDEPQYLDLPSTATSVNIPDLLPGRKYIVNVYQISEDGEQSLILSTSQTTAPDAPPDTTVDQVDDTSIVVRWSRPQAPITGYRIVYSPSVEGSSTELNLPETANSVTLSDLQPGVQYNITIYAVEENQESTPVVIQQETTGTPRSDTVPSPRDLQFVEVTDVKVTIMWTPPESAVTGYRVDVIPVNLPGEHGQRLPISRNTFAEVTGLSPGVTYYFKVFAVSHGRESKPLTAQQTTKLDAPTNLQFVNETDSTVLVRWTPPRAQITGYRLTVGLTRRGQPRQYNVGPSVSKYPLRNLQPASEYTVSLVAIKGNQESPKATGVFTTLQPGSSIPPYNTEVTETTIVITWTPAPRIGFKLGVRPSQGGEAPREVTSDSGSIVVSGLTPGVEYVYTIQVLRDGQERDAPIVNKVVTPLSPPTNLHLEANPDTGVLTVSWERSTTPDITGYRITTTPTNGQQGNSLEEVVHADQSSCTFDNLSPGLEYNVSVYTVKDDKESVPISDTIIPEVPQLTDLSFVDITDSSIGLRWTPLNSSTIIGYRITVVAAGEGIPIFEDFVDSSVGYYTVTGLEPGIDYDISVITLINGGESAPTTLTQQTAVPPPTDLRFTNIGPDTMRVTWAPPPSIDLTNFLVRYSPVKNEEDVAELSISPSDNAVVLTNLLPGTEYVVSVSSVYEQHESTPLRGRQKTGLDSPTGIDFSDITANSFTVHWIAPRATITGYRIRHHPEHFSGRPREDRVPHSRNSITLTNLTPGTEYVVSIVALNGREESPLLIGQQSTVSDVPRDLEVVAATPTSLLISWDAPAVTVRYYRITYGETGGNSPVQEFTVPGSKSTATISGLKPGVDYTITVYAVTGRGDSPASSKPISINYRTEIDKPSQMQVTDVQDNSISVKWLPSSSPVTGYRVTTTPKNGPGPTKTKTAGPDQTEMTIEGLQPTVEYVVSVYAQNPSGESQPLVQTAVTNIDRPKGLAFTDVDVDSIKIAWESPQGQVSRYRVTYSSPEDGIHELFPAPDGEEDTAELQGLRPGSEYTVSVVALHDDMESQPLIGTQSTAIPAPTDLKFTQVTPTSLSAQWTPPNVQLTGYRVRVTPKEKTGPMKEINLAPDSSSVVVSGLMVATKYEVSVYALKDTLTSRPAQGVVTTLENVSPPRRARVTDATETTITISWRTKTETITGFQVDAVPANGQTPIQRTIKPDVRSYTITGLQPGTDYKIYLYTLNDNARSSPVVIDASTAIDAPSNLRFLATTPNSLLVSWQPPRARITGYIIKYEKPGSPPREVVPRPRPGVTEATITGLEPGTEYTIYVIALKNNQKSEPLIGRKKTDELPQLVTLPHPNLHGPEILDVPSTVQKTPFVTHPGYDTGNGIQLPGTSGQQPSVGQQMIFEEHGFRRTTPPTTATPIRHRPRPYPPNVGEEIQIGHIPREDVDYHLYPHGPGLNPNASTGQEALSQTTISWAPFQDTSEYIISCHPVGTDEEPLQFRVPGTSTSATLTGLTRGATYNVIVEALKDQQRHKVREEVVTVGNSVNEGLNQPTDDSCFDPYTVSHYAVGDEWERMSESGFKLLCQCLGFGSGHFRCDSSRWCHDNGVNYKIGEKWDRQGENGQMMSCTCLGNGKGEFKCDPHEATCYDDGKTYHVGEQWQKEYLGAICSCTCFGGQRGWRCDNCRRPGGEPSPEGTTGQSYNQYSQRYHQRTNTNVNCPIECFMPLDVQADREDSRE

What was measured:
Test in all cases: co-IP; lysates of HRECs incubated 72 h with 10 ng/ml IL-13, lysis buffer without SDS (25 mM Tris-HCl, 150 mM NaCl, 1% Triton X-100); precipitated with anti-PN, anti-TNC or anti-FN antibodies (IgG as control) overnight at 4 °C and agarose beads; western blot with anti-PN, anti-TNC and anti-FN
[1] = target: tenascin-C (human (endogenous in HRECs)) (UniProt P24821)
[2] = target: fibronectin (human (endogenous in HRECs)) (UniProt P02751)
[3] = target: T1, periostin (human (endogenous in HRECs)) (UniProt Q15063)
T1 sequence: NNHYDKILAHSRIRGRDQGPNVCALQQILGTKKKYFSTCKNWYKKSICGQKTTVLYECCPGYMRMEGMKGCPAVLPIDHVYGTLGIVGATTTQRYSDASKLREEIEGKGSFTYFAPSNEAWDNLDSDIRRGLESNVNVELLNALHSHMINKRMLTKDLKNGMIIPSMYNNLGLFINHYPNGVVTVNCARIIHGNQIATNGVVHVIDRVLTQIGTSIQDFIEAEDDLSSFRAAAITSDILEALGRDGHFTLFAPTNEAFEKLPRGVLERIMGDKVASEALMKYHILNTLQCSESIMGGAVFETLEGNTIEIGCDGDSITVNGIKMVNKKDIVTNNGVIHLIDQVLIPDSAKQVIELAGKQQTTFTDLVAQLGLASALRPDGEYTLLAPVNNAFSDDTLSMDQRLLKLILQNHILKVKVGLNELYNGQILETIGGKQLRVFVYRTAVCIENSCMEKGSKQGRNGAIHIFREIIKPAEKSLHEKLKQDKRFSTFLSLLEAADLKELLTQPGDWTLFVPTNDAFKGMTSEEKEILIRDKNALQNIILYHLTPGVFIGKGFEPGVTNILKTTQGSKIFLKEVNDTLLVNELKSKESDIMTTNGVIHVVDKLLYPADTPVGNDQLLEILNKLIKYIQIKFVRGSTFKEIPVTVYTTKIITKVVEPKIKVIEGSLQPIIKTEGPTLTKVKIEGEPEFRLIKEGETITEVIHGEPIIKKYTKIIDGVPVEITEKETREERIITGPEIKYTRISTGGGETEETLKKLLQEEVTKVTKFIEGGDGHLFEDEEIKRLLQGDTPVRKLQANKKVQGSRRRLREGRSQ

Row | Substance | binding [1] | binding [2] | binding [3]
1 | fibronectin (from UniProt P02751 32-2477) | binds |  | 
2 | tenascin-C (from UniProt P24821 23-2201) |  | binds | binds
